Laboratory results: patent US20150335565A1, “IRRITATION MITIGATING POLYMERS AND USES THEREFOR” (LUBRIZOL ADVANCED MATERIALS, INC., priority 2012, published 2015)
Several values for one entry are separate records, joined by “and”; a condition that tells them apart may be missing. Equal entries are not always repeated.

Test system: Epiderm™ Human Tissue Model (EPI-200)
Assay: MTT tissue viability assay (ET-50 protocol) for skin irritancy
Conditions: for Ave. (OD): 570 nm; for OD (570 nm): single test well (Rep), sulfate
Procedure: Mitigation of skin irritancy induced by sodium dodecyl sulfate (SDS) surfactant dosed with the polymer of Example 56 is assessed in the Epiderm™ Human Tissue Model (EPI-200) bioassay conducted by MatTek Corporation, Ashland, Mass. The MatTek bioassay utilizes human derived epidermal keratinocytes (NHEK) which have been cultured to form a multilayered, highly differentiated model of the human epidermis.
The MTT tissue viability assay measures the NAD(P)H dependent microsomal enzyme reduction of MTT (and to a lesser extent, the succinate dehydrogenase reduction of MTT) after exposure to a treated skin culture test sample for various exposure times. The duration of exposure resulting in a 50% decrease in MTT conversion in test formulation treated EpiDerm™ cultures, relative to control cultures, is determined (ET-50).
A SDS surfactant/polymer test formulation is formulated from the components set forth in Table 10 and evaluated for irritancy potential using the MTT viability assay. Test samples containing neat SDS surfactant (no polymer) are formulated for comparative purposes.
Skin tissue culture inserts (Cat. No. EPI-200) are pre-incubated in the wells of 6-well plates containing 0.9 ml of MatTek assay medium (Cat. No. EPI-100-ASY) for 1 hr. at 37° C. in a humidified atmosphere of 5% CO2 in air. The 6-well plates containing the tissue culture inserts are removed from the incubator and the assay media is aspirated from the wells and replaced by an additional aliquot of 0.9 ml of pre-warmed (37° C.) assay media. For each exposure time wells are then dosed (2 repetitions) with 100 μl of the test formulations set forth in Table 10 (3 tissue culture wells are dosed with 100 μl ultra-pure water as a negative control for each of the test candidates). In addition, 100 μl of a positive control formulation (1% Triton X-100 in ultrapure water) is dosed into tissue culture wells (3 repetitions for each exposure time), as well as 3 repetitions of ultrapure water as a negative control. The exposure times of the test formulations, negative control and positive control are set forth below.
MTT assay plates are prepped by preparing a 24-well plate by adding 300 μl of MTT reagent solution to an appropriate number of wells to accommodate the test. The MTT reagent is utilized at a concentration of 1 mg/ml of MTT diluted in Dulbecco's Modified Eagle Medium (DMEM). The MTT/DMEM solution is centrifuged and decanted to remove any precipitate before use.
After exposure times of 60 (1 hr.), 120 (2 hrs.) and 210 (3.5 hrs.) minutes to the test solutions, the tissue cultures are removed from the incubator and thoroughly rinsed (2 times) with Dulbecco's phosphate buffered saline (DPBS) to remove the test material. The negative control is exposed for 4 hours and the positive control is exposed for time periods of 4, 6, 8, and 10 hours. Any remaining rinse media is decanted from the top of the tissue cultures. Each tissue culture insert is transferred to an appropriately labeled well of the 24-well plate containing the MTT reagent solution and placed back in the incubator. After 30 minutes reaction with the MTT reagent, the tissue cultures are removed from the incubator. Each tissue culture insert is removed from its well and the bottom is gently blotted with a lab tissue. The inserts are immersed into a labeled 24-well extraction plate containing 2 ml of isopropanol extractant solution. The 24-well extraction plate is covered with aluminum foil (to protect the samples from light) and placed into a sealable plastic bag to minimize evaporation of the extractant solution. The sealed 24-well extraction plate is set on an orbital shaker and gently shaken for 2 hours at ambient room temperature (approximately 20° C.).
Upon the conclusion of the extraction period, the extractant liquid within each tissue culture insert is decanted back into the well from which it was taken and thoroughly mixed with the extractant solution contained in the well.

## CCCCCCCCCCCCOS(=O)(=O)[O-].[Na+] [Neat Surfactant, sodium dodecyl sulfate]
Exposure time 1 hr
  Ave. (OD): 0.733
  OD (570 nm): 0.647 and 0.818
Exposure time 2 hr
  Ave. (OD): 0.285
  OD (570 nm): 0.322 and 0.248
Exposure time 3.5 hr
  Ave. (OD): 0.200
  OD (570 nm): 0.179 and 0.221
